For at least one compound, name, drawing or mass did not settle the structure. Some results were stated once for a whole list of compounds, not compound by compound.
What was measured:
[1] = Irradiation absorption in an in vitro skin model (Vitro-skin, integrating sphere transmission); conditions: projected linear relation between concentration and absorption
Description: A commercial sunscreen SPF60 was used for comparison. Vitro−skin+miglyol was used as the control. Curve 1: Vitro−skin+Miglyol, 2: SPF60, 3:fucoxanthin at 2.76 mg/ml, 4:fucoxanthin at 0.55 mg/ml, 5:fucoxanthin at 0.25 mg/ml, 6:diadinoxanthin at 0.64 mg/ml, 7:diadinoxanthin at 0.13 mg/ml; and
The concentrations are given as the sum of the given compounds and their degradation products (cis-fucoxanthin and diadinochrome). Solid lines with squares—diadinoxanthin. Solid line with diamonds—fucoxanthin. Dashed lines illustrate a projected linear relationship.
The in vitro method of Springsteen was used (Springsteen et al., 1999, Analytica Chimica Acta, 380, p155-164). Vitro-skin was used as the skin simulator and Miglyol (Miglyol 812F Neutraloel CHG. 040906) was used as the solvent. The tests were performed with a Varian Cary 300 Conc UV-Visible Spectrophotometer (with an integrating sphere). Fucoxanthin and diadinoxanthin (isolated as described in Example 2) were tested at the concentrations indicated on FIG. 3.

[2] = Recovery of initial amount after extraction at different temperature and pH (stability); assay type: physicochemical
Source text: Values indicated are for the amount of each compound in the indicated phase. The value in brackets indicates the % distribution between the two phases.

## CC1=C(C#C/C(C)=C/C=C/C(C)=C/C=C/C=C(C)/C=C/C=C(C)/C=C/[C@@]23O[C@]2(C)C[C@@H](O)CC3(C)C)C(C)(C)C[C@H](O)C1 [diadinoxanthin]
[1]
  concentration in the final solution sufficient to provide protection at 454 nm (blue light): less than 5 mg/ml
[2]; NaOH-buffer, pH 12.2, 50° C.
  % recovery of initial amount: 102%
[2]; Phosphate, pH 11, 20° C.
  % recovery of initial amount: 106%
[2]; Phosphate, pH 11, 50° C.
  % recovery of initial amount: 104%
